# No constants are given. Whether binding was seen depends on the method and setting. A result given as binding can be weak or reduced; the word gives no strength.
# Experiments:
# Experiment in all cases: two-hybrid; PprCIPKs in pGBKT7 as bait (strain Y2Hgold), PprCBLs in pGADT7 as prey (strain Y187), mated; diploids grown on DDO, QDO/A and QDO/A/X media at 30 °C for 3 d in the dark; empty vectors as controls
# [1] = biological target: PprCIPK17 (peach (Prunus persica)) (UniProt M5W1Z0)
# [2] = biological target: PprCIPK5 (peach (Prunus persica))
# [3] = biological target: PprCIPK12 (peach (Prunus persica)) (UniProt M5WHU3)
# [4] = biological target: PprCIPK13 (peach (Prunus persica)) (UniProt M5W5N0)
# [5] = biological target: PprCIPK14 (peach (Prunus persica)) (UniProt M5WPB6)
binding [1],binding [2],binding [3],binding [4],binding [5],Substance
binds,binds,,,,PprCBL1 (from UniProt A0A251RB23)
binds,binds,binds,binds,binds,PprCBL3 (from UniProt M5XDL0)

# From publication PMC9653928
